Data on three molecules can be found in paper PMC5773696.

Amino acid sequences for entries named in this document (tags omitted). A change or cut given only in a name is not applied to a line headed by its entry.
UniProt P19525: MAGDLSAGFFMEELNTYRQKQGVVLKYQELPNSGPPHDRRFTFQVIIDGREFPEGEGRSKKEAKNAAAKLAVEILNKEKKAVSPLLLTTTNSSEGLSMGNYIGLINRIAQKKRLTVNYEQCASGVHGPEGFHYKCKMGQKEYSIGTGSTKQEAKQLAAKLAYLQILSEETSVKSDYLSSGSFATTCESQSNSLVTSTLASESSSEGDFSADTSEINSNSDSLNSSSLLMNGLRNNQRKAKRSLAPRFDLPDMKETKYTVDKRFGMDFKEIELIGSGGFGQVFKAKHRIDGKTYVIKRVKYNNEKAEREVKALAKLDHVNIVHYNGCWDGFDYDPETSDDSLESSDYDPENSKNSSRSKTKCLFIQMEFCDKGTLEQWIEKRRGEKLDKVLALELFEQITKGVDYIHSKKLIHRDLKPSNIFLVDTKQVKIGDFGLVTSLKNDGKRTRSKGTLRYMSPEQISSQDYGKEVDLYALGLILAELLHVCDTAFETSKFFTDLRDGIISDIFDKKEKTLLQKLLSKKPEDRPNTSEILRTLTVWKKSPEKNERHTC

These are yes or no findings as the source states them, for the method shown. For some of these results: In cells and extracts the contact can be indirect. Some binding calls cover weakened binding; strength is not graded here. Sequences can lack the tags named with a protein.

In test [1] the target is T1, myc TRBP DDDD (myc TRBP DDDD/pcDNA 3.1-), phospho-mimic point mutant (UniProt Q15633).
T1 sequence: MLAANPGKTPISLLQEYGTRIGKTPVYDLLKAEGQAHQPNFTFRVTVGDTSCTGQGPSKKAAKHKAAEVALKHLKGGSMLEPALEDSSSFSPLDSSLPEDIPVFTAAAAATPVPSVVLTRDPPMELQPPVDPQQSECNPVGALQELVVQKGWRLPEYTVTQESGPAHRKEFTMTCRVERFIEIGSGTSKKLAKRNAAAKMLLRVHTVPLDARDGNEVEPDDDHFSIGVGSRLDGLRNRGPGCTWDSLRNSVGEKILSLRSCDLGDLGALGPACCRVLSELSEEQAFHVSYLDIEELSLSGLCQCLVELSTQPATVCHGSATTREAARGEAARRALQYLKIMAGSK
The experiment in a line: co-IP; HeLa cells co-transfected with Flag K296R PKR and myc TRBP forms, harvested after 24 h; myc TRBP precipitated with anti-c-myc agarose overnight at 4 °C in 150 mM NaCl, 20 mM Tris-HCl pH 7.5, 1 mM EDTA, 1% Triton X-100, 20% glycerol; blot with anti-Flag.

Test [2] has as its target T2, myc TRBP AAAA (myc TRBP AAAA/pcDNA 3.1-), phospho-defective point mutant (UniProt Q15633).
T2 sequence: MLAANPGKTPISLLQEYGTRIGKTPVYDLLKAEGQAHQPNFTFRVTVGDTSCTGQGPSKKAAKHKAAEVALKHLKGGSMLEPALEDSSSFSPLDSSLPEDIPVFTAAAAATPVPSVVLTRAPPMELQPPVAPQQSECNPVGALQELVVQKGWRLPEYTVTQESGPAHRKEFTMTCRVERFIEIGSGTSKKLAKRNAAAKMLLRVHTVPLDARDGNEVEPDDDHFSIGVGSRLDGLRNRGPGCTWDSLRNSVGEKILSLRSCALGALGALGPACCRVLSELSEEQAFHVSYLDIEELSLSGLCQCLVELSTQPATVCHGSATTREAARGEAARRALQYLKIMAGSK
The test is described as above.

The target of test [3] is T3, myc wt TRBP (myc wt TRBP/pcDNA 3.1-) (UniProt Q15633).
T3 sequence: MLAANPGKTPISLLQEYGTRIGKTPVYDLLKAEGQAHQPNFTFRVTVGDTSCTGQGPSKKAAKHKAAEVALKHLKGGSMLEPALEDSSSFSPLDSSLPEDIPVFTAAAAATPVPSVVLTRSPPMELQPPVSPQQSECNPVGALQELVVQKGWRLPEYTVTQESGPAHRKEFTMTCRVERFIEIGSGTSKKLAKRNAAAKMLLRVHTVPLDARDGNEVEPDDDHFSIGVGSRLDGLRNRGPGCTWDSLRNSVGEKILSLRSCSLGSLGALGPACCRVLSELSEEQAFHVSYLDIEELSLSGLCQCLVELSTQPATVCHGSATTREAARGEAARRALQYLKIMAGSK
The test is described as above.

The target of test [4] is T4, wt TRBP, GAL4 DNA-binding domain fusion (wt TRBP/pGBKT7) (UniProt Q15633).
T4 sequence: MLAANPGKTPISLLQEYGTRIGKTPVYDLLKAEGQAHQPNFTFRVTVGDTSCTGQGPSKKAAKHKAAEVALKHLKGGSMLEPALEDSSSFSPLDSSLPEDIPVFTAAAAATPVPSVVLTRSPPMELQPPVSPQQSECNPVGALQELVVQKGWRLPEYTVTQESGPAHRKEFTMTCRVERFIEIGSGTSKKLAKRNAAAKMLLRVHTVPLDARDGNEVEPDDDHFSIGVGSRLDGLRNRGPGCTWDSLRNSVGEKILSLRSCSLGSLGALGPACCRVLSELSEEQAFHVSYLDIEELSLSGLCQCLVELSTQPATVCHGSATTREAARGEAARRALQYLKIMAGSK
Nature of the test: two-hybrid; K296R PKR as GAL4 activation domain fusion (pGAD424), TRBP forms as GAL4 DNA-binding domain fusions (pGBKT7); AH109 yeast; growth of serial dilutions on medium lacking histidine, tryptophan and leucine with 10 mM 3-AT, 30 °C, 3 days.

In test [5] the target is T5, DDDD TRBP (phospho-mimic point mutant), yeast two-hybrid fusion (DDDD TRBP/pGBKT7; DDDD TRBP/pGADT7) (UniProt Q15633).
T5 sequence: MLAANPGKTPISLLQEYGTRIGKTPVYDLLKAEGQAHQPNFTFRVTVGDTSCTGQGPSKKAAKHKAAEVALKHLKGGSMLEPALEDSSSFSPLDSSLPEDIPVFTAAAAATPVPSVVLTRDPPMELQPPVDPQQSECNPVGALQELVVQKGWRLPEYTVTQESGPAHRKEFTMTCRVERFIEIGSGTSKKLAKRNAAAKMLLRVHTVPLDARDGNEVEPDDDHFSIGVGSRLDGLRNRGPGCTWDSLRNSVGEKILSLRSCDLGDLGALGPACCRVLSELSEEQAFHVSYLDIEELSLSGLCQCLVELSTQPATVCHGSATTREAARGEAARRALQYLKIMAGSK
The test is described as above.

In test [6] the target is T6, AAAA TRBP (phospho-defective point mutant), yeast two-hybrid fusion (AAAA TRBP/pGBKT7; AAAA TRBP/pGADT7) (UniProt Q15633).
T6 sequence: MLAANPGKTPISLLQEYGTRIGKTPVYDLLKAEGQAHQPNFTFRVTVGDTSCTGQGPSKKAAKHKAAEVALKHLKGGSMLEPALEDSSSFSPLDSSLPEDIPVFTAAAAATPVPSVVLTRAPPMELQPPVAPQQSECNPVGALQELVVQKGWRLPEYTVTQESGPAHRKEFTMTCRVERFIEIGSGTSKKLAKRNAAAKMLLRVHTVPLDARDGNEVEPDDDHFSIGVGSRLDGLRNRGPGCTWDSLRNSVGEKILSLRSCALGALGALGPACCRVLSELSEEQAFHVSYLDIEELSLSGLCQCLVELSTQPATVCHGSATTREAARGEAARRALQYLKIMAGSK
The test is described as above.

For test [7], the target named is recombinant hexahistidine-tagged PKR (His-PKR) (UniProt P19525). Nature of the test: pull-down; His-PKR immobilised on Ni2+-agarose; 25 ug extract of Flag TRBP HeLa Tet off cells, untreated or treated with 25 uM sodium arsenite for 2, 4, 8 and 12 h, with phosphatase inhibitor; 20 mM Tris-HCl pH 7.5, 150 mM NaCl, 1 mM EDTA, 1 mM DTT, 1% Triton-X 100, 2% glycerol; 4 °C, 1 h; blot with anti-Flag; only the target purified.

“Flag K296R PKR (Flag K296R PKR/pcDNA 3.1-) (from UniProt P19525 1-551)”: the binding result in test [1], in test [2] and in test [3] was “binds” throughout.

With “K296R PKR, GAL4 activation domain fusion (K296R PKR/pGAD424) (from UniProt P19525 1-551)”, the binding entry in test [4], in test [5] and in test [6] was “binds” each time.

B1: Flag-TRBP from the stable HeLa Tet off line (Flag TRBP/pTRE2pur), cells without stress (protein, UniProt Q15633-2 1-345)
chain: MLAANPGKTPISLLQEYGTRIGKTPVYDLLKAEGQAHQPNFTFRVTVGDTSCTGQGPSKKAAKHKAAEVALKHLKGGSMLEPALEDSSSFSPLDSSLPEDIPVFTAAAAATPVPSVVLTRSPPMELQPPVSPQQSECNPVGALQELVVQKGWRLPEYTVTQESGPAHRKEFTMTCRVERFIEIGSGTSKKLAKRNAAAKMLLRVHTVPLDARDGNEVEPDDDHFSIGVGSRLDGLRNRGPGCTWDSLRNSVGEKILSLRSCSLGSLGALGPACCRVLSELSEEQAFHVSYLDIEELSLSGLCQCLVELSTQPATVCHGSATTREAARGEAARRALQYLKIMAGSK
Regarding B1, in test [7], the binding result was “binds weakly”.
